Results: paper PMC4762780
Where two headings read alike, the source gives them in different places. No constants are given. Whether binding was seen depends on the method and setting. Binding seen in cells or lysates may run through a third protein. For part of these data: A result given as binding can be weak or reduced; the word gives no strength. For part of these data: Sequences can lack the tags named with a protein.

Chains of the proteins cited; added tags and fusions are not shown. Lines headed by an entry give the natural chain unless they say otherwise; changes in a name come on top.
UniProt Q8CFN5: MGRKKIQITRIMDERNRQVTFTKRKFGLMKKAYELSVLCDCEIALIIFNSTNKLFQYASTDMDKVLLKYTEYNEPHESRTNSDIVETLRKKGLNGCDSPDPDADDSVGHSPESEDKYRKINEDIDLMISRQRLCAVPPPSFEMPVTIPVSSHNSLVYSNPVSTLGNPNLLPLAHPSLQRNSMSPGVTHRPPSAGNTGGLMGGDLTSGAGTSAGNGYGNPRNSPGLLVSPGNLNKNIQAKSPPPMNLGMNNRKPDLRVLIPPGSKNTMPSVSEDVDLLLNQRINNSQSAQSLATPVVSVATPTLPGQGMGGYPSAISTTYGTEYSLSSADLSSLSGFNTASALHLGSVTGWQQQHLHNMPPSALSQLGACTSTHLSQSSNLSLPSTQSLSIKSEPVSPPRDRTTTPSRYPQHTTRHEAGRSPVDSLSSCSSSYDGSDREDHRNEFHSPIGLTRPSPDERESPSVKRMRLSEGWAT
UniProt Q02650: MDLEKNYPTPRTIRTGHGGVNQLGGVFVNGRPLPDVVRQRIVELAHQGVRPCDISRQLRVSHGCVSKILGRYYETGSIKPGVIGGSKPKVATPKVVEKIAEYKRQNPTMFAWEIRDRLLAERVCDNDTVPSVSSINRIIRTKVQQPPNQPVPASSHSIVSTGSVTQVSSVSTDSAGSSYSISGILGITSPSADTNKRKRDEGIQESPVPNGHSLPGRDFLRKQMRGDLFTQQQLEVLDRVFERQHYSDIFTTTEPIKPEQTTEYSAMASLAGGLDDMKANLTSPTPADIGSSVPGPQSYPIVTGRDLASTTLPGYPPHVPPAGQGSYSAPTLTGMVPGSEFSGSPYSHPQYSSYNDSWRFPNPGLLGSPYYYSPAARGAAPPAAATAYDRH

Columns and labels:
[1] = target: FLAG-tagged phosphomimetic MEF2C (EED-MEF2C) (UniProt Q8CFN5); assay: co-IP; 293T cells co-transfected; lysis in 50mM HEPES, 140mM NaCl, 1mM EDTA, 0.5% Triton-X, 0.5% sodium deoxycholate; overnight IP with anti-FLAG M2 (MEF2C as bait); washed with high-salt lysis buffer (500mM NaCl); blotted with anti-Myc or anti-V5; for WT MEF2C and EBF1 also with benzonase treatment, which did not prevent co-IP
[2] = target: T1, Myc-tagged EBF1 (early B cell factor-1) (UniProt Q07802); assay: co-IP; 293T cells co-transfected with FLAG-tagged WT, EED or AAA MEF2C and Myc-tagged EBF1; Myc-IP (EBF1 as bait) blotted with FLAG antibody (S1C Fig)
T1 sequence: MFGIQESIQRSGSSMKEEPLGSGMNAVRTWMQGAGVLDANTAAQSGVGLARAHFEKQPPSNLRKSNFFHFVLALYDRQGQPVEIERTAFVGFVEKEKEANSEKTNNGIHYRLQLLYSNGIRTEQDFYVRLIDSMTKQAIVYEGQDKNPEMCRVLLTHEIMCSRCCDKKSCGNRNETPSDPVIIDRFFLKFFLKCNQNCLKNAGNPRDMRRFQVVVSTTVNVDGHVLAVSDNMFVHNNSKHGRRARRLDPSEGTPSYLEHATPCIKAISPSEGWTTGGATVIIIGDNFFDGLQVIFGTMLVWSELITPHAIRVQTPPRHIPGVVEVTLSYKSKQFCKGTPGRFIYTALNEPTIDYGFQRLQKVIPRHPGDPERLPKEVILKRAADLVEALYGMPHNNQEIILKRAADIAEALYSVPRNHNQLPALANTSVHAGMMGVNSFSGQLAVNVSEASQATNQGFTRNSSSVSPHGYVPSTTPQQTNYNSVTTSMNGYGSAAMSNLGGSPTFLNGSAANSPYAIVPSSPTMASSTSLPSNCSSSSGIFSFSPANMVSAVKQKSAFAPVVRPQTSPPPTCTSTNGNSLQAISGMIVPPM

[3] = target: FLAG-tagged phosphorylation-deficient MEF2C (AAA MEF2C) (UniProt Q8CFN5); assay: co-IP; 293T cells co-transfected; lysis in 50mM HEPES, 140mM NaCl, 1mM EDTA, 0.5% Triton-X, 0.5% sodium deoxycholate; overnight IP with anti-FLAG M2 (MEF2C as bait); washed with high-salt lysis buffer (500mM NaCl); blotted with anti-Myc or anti-V5; for WT MEF2C and EBF1 also with benzonase treatment, which did not prevent co-IP
[4] = target: FLAG-tagged phosphorylation-deficient MEF2C (AAA MEF2C) (UniProt Q8CFN5); assay: as above; remark: listed apart in the source
[5] = target: FLAG-tagged phosphomimetic MEF2C (EED-MEF2C) (UniProt Q8CFN5); assay: as above; remark: listed apart in the source

Q: How did the binding [1] turn out when “Myc-tagged PAX5 (from UniProt Q02650 1-391)” was run?
A: no binding

Q: “FLAG-tagged phosphomimetic MEF2C (EED-MEF2C) (from UniProt Q8CFN5-5)” was tested. Which binding [2] did it give?
A: binds

Q: “FLAG-tagged phosphorylation-deficient MEF2C (AAA MEF2C) (from UniProt Q8CFN5-5)” was tested. Which binding [2] did it give?
A: binds

Q: “Myc-tagged E12 (E2A isoform) (from UniProt E9PWE2 1-653)” was tested. Which binding [3] did it give?
A: no binding

Q: What about the binding [1] of the same molecule?
A: no binding

B1: Myc-tagged EBF1 (early B cell factor-1) (protein, UniProt Q07802 1-591)
chain: MFGIQESIQRSGSSMKEEPLGSGMNAVRTWMQGAGVLDANTAAQSGVGLARAHFEKQPPSNLRKSNFFHFVLALYDRQGQPVEIERTAFVGFVEKEKEANSEKTNNGIHYRLQLLYSNGIRTEQDFYVRLIDSMTKQAIVYEGQDKNPEMCRVLLTHEIMCSRCCDKKSCGNRNETPSDPVIIDRFFLKFFLKCNQNCLKNAGNPRDMRRFQVVVSTTVNVDGHVLAVSDNMFVHNNSKHGRRARRLDPSEGTPSYLEHATPCIKAISPSEGWTTGGATVIIIGDNFFDGLQVIFGTMLVWSELITPHAIRVQTPPRHIPGVVEVTLSYKSKQFCKGTPGRFIYTALNEPTIDYGFQRLQKVIPRHPGDPERLPKEVILKRAADLVEALYGMPHNNQEIILKRAADIAEALYSVPRNHNQLPALANTSVHAGMMGVNSFSGQLAVNVSEASQATNQGFTRNSSSVSPHGYVPSTTPQQTNYNSVTTSMNGYGSAAMSNLGGSPTFLNGSAANSPYAIVPSSPTMASSTSLPSNCSSSSGIFSFSPANMVSAVKQKSAFAPVVRPQTSPPPTCTSTNGNSLQAISGMIVPPM
Q: With B1 as the molecule, how does the binding [4] read?
A: binds

Q: And the binding [5]?
A: binds

B2: Myc-tagged E47 (E2A isoform) (protein, UniProt E9PVV2 1-649)
chain: MMNQSQRMAPVGSDKELSDLLDFSMMFPLPVANGKSRPASLGGTQFAGSGLEDRPSSGSWGSSDQNSSSFDPSRTYSEGAHFSDSHSSLPPSTFLGAGLGGKGSERNAYATFGRDTSVGTLSQAGFLPGELSLSSPGPLSPSGIKSSSQYYPSFPSNPRRRAADGGLADTQPKKVRKVPPGLPSSVYPPSSGDSYSRDAAAYPSAKTPSSAYPSPFYVADGSLHPSAELWSTPSQVGFGPMLGDGSSPLPLAPGSSSVGSGTFGGLQQQDRMGYQLHGSEVNGSLPAVSSFSAAPGTYSGTSGHTPPVSGAAAESLLGTRGTTASSSGDALGKALASIYSPDHSSNNFSPSPSTPVGSPQGLPGTSQWPRAGAPSALSPNYDAGLHGLSKMEDRLDEAIHVLRSHAVGTASDLHGLLPGHGALTTSFTGPMSLGGRHAGLVGGSHPEEGLTSGASLLHNHASLPSQPSSLPDLSQRPPDSYSGLGRAGTTAGASEIKREEKEDEEIASVADAEEDKKDLKVPRTRTSSTDEVLSLEEKDLRDRERRMANNARERVRVRDINEAFRELGRMCQLHLKSDKAQTKLLILQQAVQVILGLEQQVRERNLNPKAACLKRREEEKVSGVVGDPQLALSAAHPGLGEAHNPAGHL
Q: How did the binding [4] turn out when B2 was run?
A: no binding

Q: And the binding [5]?
A: no binding
